# Measurements as given in article PMC7140707.
# These are yes or no findings as the source states them, for the method shown. Binding seen in cells or lysates may run through a third protein. A yes stands for co-enrichment or nearness to the bait. Other partners may have been found. Tags and fused reporters may be left off the sequences shown.
# T1: His6-Gis1 (yeast (S. cerevisiae)) (UniProt Q03833)
# T1 sequence: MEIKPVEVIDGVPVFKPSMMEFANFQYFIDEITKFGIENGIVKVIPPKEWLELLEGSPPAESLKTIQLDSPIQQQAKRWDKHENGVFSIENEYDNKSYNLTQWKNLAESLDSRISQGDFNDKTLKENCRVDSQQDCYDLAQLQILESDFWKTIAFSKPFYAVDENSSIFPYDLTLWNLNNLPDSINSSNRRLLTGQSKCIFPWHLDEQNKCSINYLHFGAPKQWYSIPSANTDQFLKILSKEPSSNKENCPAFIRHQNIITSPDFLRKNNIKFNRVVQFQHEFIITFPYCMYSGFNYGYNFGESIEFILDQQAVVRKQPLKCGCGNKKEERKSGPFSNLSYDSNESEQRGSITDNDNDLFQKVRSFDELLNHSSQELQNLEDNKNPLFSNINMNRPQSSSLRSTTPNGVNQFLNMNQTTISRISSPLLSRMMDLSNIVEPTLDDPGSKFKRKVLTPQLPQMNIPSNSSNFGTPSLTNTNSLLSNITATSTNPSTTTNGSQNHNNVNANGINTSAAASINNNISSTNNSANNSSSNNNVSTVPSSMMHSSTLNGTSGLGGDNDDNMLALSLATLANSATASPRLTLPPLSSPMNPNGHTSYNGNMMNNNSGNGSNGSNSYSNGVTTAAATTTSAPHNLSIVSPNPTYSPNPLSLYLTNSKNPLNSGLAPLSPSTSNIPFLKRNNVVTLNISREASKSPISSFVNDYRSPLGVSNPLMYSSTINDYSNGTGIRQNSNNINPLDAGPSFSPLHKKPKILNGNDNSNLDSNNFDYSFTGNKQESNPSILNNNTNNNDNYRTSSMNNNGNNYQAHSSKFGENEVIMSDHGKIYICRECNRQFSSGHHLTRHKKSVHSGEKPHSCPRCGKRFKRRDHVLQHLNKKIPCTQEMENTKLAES
# B1: RPC40 (protein, UniProt P07703 1-335)
# chain: MSNIVGIEYNRVTNTTSTDFPGFSKDAENEWNVEKFKKDFEVNISSLDAREANFDLINIDTSIANAFRRIMISEVPSVAAEYVYFFNNTSVIQDEVLAHRIGLVPLKVDPDMLTWVDSNLPDDEKFTDENTIVLSLNVKCTRNPDAPKGSTDPKELYNNAHVYARDLKFEPQGRQSTTFADCPVVPADPDILLAKLRPGQEISLKAHCILGIGGDHAKFSPVSTASYRLLPQINILQPIKGESARRFQKCFPPGVIGIDEGSDEAYVKDARKDTVSREVLRYEEFADKVKLGRVRNHFIFNVESAGAMTPEEIFFKSVRILKNKAEYLKNCPITQ
# B2: RSA1 (protein, UniProt Q08932 1-381)
# chain: MNYNNFENSKGDGHSRLPKPTYSGTLSDGYDESKIKRQKTDSAFNAAYSPHMYPNSPYYEGSWNTGYTPQLHHVAPHNQYFHPIQPSTQYNYTSPPNYTENYIPPVHQNISYAPALNLQKWPSSYCENTQALKNDKDYQTSISYEDVAIPTVKEIQLIEKNRGKDTFMNEISPVPSSKDQASAEPTEIPRKDPELANSNAEDDHNNLGLEDDDRDEQLESEGLGKVVLVPGTSIALITDEDVKKWREERKKMWLLKISNNKQKHMQEMGIKEDELKSQPSIFKESRKEKQFIQSIQNQVQRGNPKIDLNLKLIQREFANENSQLLDFIRELGDVGLLEYELSQQEKDVLFGSSEDNNKNHYKPNYKNRKPNLSRANFTRNK
# B3: PUB1 (protein, UniProt P32588 1-453)
# chain: MSENNEEQHQQQQQQQPVAVETPSAVEAPASADPSSEQSVAVEGNSEQAEDNQGENDPSVVPANAITGGRETSDRVLYVGNLDKAITEDILKQYFQVGGPIANIKIMIDKNNKNVNYAFVEYHQSHDANIALQTLNGKQIENNIVKINWAFQSQQSSSDDTFNLFVGDLNVNVDDETLRNAFKDFPSYLSGHVMWDMQTGSSRGYGFVSFTSQDDAQNAMDSMQGQDLNGRPLRINWAAKRDNNNNNNYQQRRNYGNNNRGGFRQYNSNNNNNMNMGMNMNMNMNMNNSRGMPPSSMGMPIGAMPLPSQGQPQQSQTIGLPPQVNPQAVDHIIRSAPPRVTTAYIGNIPHFATEADLIPLFQNFGFILDFKHYPEKGCCFIKYDTHEQAAVCIVALANFPFQGRNLRTGWGKERSNFMPQQQQQGGQPLIMNDQQQPVMSEQQQQQQQQQQQQ
# B4: RRP3 (protein, UniProt P38712 1-501)
# chain: MSKIVKRKEKKANDELTSLAEKIRAKALENQKKLIEAEKEGGSESDSEEDATAEKKKVLKSKSKSTVSTQNENTNEDESFESFSELNLVPELIQACKNLNYSKPTPIQSKAIPPALEGHDIIGLAQTGSGKTAAFAIPILNRLWHDQEPYYACILAPTRELAQQIKETFDSLGSLMGVRSTCIVGGMNMMDQARDLMRKPHIIIATPGRLMDHLENTKGFSLRKLKFLVMDEADRLLDMEFGPVLDRILKIIPTQERTTYLFSATMTSKIDKLQRASLTNPVKCAVSNKYQTVDTLVQTLMVVPGGLKNTYLIYLLNEFIGKTMIIFTRTKANAERLSGLCNLLEFSATALHGDLNQNQRMGSLDLFKAGKRSILVATDVAARGLDIPSVDIVVNYDIPVDSKSYIHRVGRTARAGRSGKSISLVSQYDLELILRIEEVLGKKLPKESVDKNIILTLRDSVDKANGEVVMEMNRRNKEKIARGKGRRGRMMTRENMDMGER
# B5: RNH1 (protein, UniProt Q04740 1-348)
# chain: MARQGNFYAVRKGRETGIYNTWNECKNQVDGYGGAIYKKFNSYEQAKSFLGQPNTTSNYGSSTHAGGQVSKPHTTQKRVHRRNRPLHYSSLTSSSACSSLSSANTNTFYSVKSNVPNIESKIFNNWKDCQAYVKHKRGITFKKFEDQLAAENFISGMSAHDYKLMNISKESFESKYKLSSNTMYNKSMNVYCDGSSFGNGTSSSRAGYGAYFEGAPEENISEPLLSGAQTNNRAEIEAVSEALKKIWEKLTNEKEKVNYQIKTDSEYVTKLLNDRYMTYDNKKLEGLPNSDLIVPLVQRFVKVKKYYELNKECFKNNGKFQIEWVKGHDGDPGNEMADFLAKKGASRR
# B6: PHB2 (protein, UniProt P50085 1-310)
# chain: MNRSPGEFQRYAKAFQKQLSKVQQTGGRGQVPSPRGAFAGLGGLLLLGGGALFINNALFNVDGGHRAIVYSRIHGVSSRIFNEGTHFIFPWLDTPIIYDVRAKPRNVASLTGTKDLQMVNITCRVLSRPDVVQLPTIYRTLGQDYDERVLPSIVNEVLKAVVAQFNASQLITQREKVSRLIRENLVRRASKFNILLDDVSITYMTFSPEFTNAVEAKQIAQQDAQRAAFVVDKARQEKQGMVVRAQGEAKSAELIGEAIKKSRDYVELKRLDTARDIAKILASSPNRVILDNEALLLNTVVDARIDGRGK
# B7: OSM1 (protein, UniProt P21375 33-501)
# chain: MKQPVVVIGSGLAGLTTSNRLISKYRIPVVLLDKAASIGGNSIKASSGINGAHTDTQQNLKVMDTPELFLKDTLHSAKGRGVPSLMDKLTKESKSAIRWLQTEFDLKLDLLAQLGGHSVPRTHRSSGKLPPGFEIVQALSKKLKDISSKDSNLVQIMLNSEVVDIELDNQGHVTGVVYMDENGNRKIMKSHHVVFCSGGFGYSKEMLKEYSPNLIHLPTTNGKQTTGDGQKILSKLGAELIDMDQVQVHPTGFIDPNDRENNWKFLAAEALRGLGGILLHPTTGRRFTNELSTRDTVTMEIQSKCPKNDNRALLVMSDKVYENYTNNINFYMSKNLIKKVSINDLIRQYDLQTTASELVTELKSYSDVNTKDTFDRPLIINAFDKDISTESTVYVGEVTPVVHFTMGGVKINEKSQVIKKNSESVLSNGIFAAGEVSGGVHGANRLGGSSLLECVVFGKTAADNIAKLY
# Molecular target: T1, His6-Gis1 (yeast (S. cerevisiae))
# Assay: affinity purification with mass spectrometry; His6-Gis1 pre-bound to a Ni Sepharose 6 Fast Flow column; crude yeast extract (Δgis1 cells grown in air or under hypoxia, Δgis1Δhem1 cells at intermediate or high ALA) loaded, 4 °C, 2 h; eluted complexes separated by SDS-PAGE, bands excised, MS; only the target purified
row,binding,Binder
1,binds,B1
2,binds,B2
3,binds,B3
4,binds,B4
5,binds,B5
6,binds,B6
7,binds,B7
